# Results deposited as PubChem BioAssay AID686943 (Drosophila RNAi Screening Center, 2013)
# Aim: 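Knockdowns that increase or decrease active ERK after insulin receptor stimulation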 (primary screen)
# Cells: Drosophila S2R+ haemocyte-like cells expressing YFP-tagged ERK (Rolled)
# Reagents: long dsRNA against Drosophila genes
# Treatment: insulin stimulation versus unstimulated cells; dose and duration not given
# Measurement: 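Antibody staining for doubly phosphorylated ERK divided by ERK-YFP signal, as plate z-scores, in insulin-treated and untreated cells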
# Scale: replicate 1, z-score of dpERK with insulin and replicate 2, z-score of dpERK with insulin: higher = more active ERK per ERK-YFP after insulin
# In all, the deposit lists about 23,000 reagents; below is a random part of those with a known target gene and a result. 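Extra replicates exist only for a retested subset of genes; insulin dose and duration not given; both raised and lowered dpERK matter.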 Names joined by + are all predicted targets of the reagent. Further read-outs or replicates are left out here. The record does not give: the amount of reagent, the time to read-out.
gene knocked down,DRSC id,"replicate 1, z-score of dpERK with insulin","replicate 2, z-score of dpERK with insulin"
CG5382,DRSC15786,0.09,-0.9
Whamy,DRSC14574,0.75,0.14
CG5767,DRSC06953,1.24,0.69
CG6621,DRSC16076,0.28,0.7
Cnot4,DRSC02830,0.18,0.1
Cnot4,DRSC02831,-0.34,-0.17
CG2772,DRSC00530,-0.02,-0.06
l(3)neo43,DRSC14988,0.94,0.88
CG13728,DRSC10056,1.23,-0.07
CG7166,DRSC11809,-0.46,-0.36
TBC1D5,DRSC16421,-0.2,-0.17
amd,DRSC02608,0.64,1.73
amd,DRSC03483,-0.1,0.15
Frq1,DRSC19961,0.92,0.22
Nup153,DRSC19904,-1.74,-3.67
CG43188,DRSC05260,0.48,0.11
CG4151,DRSC18351,-0.27,-0.05
CG6933,DRSC10751,-0.21,-0.21
CG34444,DRSC06435,-0.42,-0.1
CG17806,DRSC15276,0.15,0.52
OSCP1,DRSC06304,-0.82,2.05
CG17036,DRSC02564,-0.17,0.02
Pfdn4,DRSC09761,0.54,1.24
noi,DRSC12383,3.61,-1.53
CG18371,DRSC06733,-0.11,0.82
Mcm5,DRSC16735,0.29,-0.09
Act42A,DRSC04835,-3.52,-3.44
RpL19,DRSC04649,-3.2,-0.08
CG13743,DRSC05139,1.22,0.91
CG13743,DRSC06414,-0.14,-0.28
CG13743,DRSC22775,2.14,0.41
az2,DRSC07580,-0.56,0.2
Deaf1,DRSC11143,1,-1.45
Deaf1,DRSC22786,-0.57,-0.59
CG6761,DRSC10705,1.27,0.89
Srx,DRSC20005,0.16,-0.04
Ank,DRSC17127,-0.03,-0.51
CG34330,DRSC20043,1.26,0.02
CG34205,DRSC04149,0.57,0.16
CG34205,DRSC22823,0.17,0.8
CG8236,DRSC16399,-0.22,0.33
CG5397,DRSC00683,0.02,-0.33
CG11983,DRSC14458,-0.42,-0.11
alpha-Man-Ib,DRSC14418,1.54,-1.08
CG1344,DRSC04837,0.15,0.65
CG43244,DRSC05336,-0.07,0.24
CG42586 + CG31775,DRSC01413,0.96,0.95
CG6830,DRSC16124,-0.01,0.35
CG4962,DRSC10464,0.67,0.14
CG8840,DRSC00713,0.08,-0.6
Prosbeta3,DRSC16801,-6.2,-4.75
CG5556,DRSC00687,0.83,0.26
PGRP-SB2,DRSC11092,0.77,0.51
CG12576,DRSC20621,-0.25,-0.52
CG5644,DRSC10531,0.43,-0.36
ND6 (retired record),DRSC21271,0.52,0.24
Cyp305a1,DRSC11126,-0.33,-0.07

6 consecutive records from above, quoted:
gene knocked down,DRSC id,"replicate 1, z-score of dpERK with insulin","replicate 2, z-score of dpERK with insulin"
CG2772,DRSC00530,-0.02,-0.06
l(3)neo43,DRSC14988,0.94,0.88
CG13728,DRSC10056,1.23,-0.07
CG7166,DRSC11809,-0.46,-0.36
TBC1D5,DRSC16421,-0.2,-0.17
amd,DRSC02608,0.64,1.73
